The supplement of paper PMC6143611
Where a name gives a salt, the structure may show the parent alone. ± gives the uncertainty stated by the source. Some of the results follow. Plates or batches differ in their baseline, so values are only roughly comparable.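 At 6 dpf, larvae had a heat-shock-induced fluorescent stripe placed in rod outer segments; shedding distance, from stripe to outer segment tip, was measured in confocal stacks, roughly three fish per compound. Controls received 0.2% DMSO vehicle; compounds were flagged for ≥20% change versus same-week control and p < 0.001 (Dunnett test, mixed-effects models).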

Experiments:
[1] = tested on: Danio rerio larva rod photoreceptor outer segment; experiment: rod outer segment growth distance Dg, difference from same-week DMSO control mean; higher = more outer segment growth; details: 20 µM; treatment time: 4 days (6-10 dpf)
[2] = tested on: Danio rerio larva rod photoreceptor outer segment; experiment: rod outer segment shedding distance Ds, difference from same-week DMSO control mean; higher = less outer segment shedding; details: 20 µM; treatment time: 4 days (6-10 dpf)

| SMILES | rod outer segment growth distance Dg [1] [um] | rod outer segment shedding distance Ds [2] [um] |
| --- | --- | --- |
| COc1ccc2c(c1)c(C1=C(c3c[nH]c4ccccc34)C(=O)NC1=O)cn2CCCN(C)C | -0.99 ± 0.2 | -0.12 ± 0.15 |
| Cc1ccc(C)c(OCCCC(C)(C)C(=O)O)c1 [Gemfibrozil] | 0.75 ± 0.28 | -0.58 ± 0.16 |
| CN(C)CC[C@H](CSc1ccccc1)Nc1ccc(S(=O)(=O)NC(=O)c2ccc(N3CCN(Cc4ccccc4-c4ccc(Cl)cc4)CC3)cc2)cc1[N+](=O)[O-] | -0.46 ± 0.23 | -0.92 ± 0.24 |
| CC(C)(C)c1nc(-c2cccc(NS(=O)(=O)c3c(F)cccc3F)c2F)c(-c2ccnc(N)n2)s1 | -1.03 ± 0.17 | -0.1 ± 0.13 |
| COc1ccccc1OCC(O)CN1CCN(CC(=O)Nc2c(C)cccc2C)CC1 (stereo not given) [Ranolazine] | -0.67 ± 0.24 | -0.03 ± 0.15 |
| CCCc1nc(C(C)(C)O)c(C(=O)OCc2oc(=O)oc2C)n1Cc1ccc(-c2ccccc2-c2nnn[nH]2)cc1 [Olmesartan Medoxomil] | 0.58 ± 0.16 | 0.3 ± 0.13 |
| Cc1cc(Cn2cnc3c2CC(C(=O)O)N(C(=O)C(c2ccccc2)c2ccccc2)C3)ccc1N(C)C (stereo not given) | -0.45 ± 0.23 | -0.1 ± 0.3 |
| CCc1ccc(CCOc2ccc(CC3SC(=O)NC3=O)cc2)nc1 (stereo not given) [Pioglitazone HCl] | 0.82 ± 0.32 | -1.23 ± 0.3 |
| Oc1ncnc2[nH]ncc12 [Allopurinol] | -0.44 ± 0.21 | 0.45 ± 0.17 |
| C[C@@H]1COCCN1c1cc(C2(S(C)(=O)=O)CC2)nc(-c2cccc3[nH]ccc23)n1 | -1.25 ± 0.23 | -0.55 ± 0.18 |
| C=C1CC[C@@H]2[C@](C)(CO)[C@H](O)CC[C@@]2(C)[C@@H]1C/C=C1/C(=O)OC[C@H]1O [Andrographolide] | 0.8 ± 0.23 | 0.51 ± 0.38 |
| Nc1ncn([C@@H]2O[C@H](CO)[C@@H](O)[C@H]2O)c(=O)n1 [Azacitidine] | -0.65 ± 0.23 | 0.08 ± 0.14 |
| CN/C(=N\CCSCc1nc[nH]c1C)NC#N [Cimetidine] | -1.2 ± 0.18 | -0.79 ± 0.28 |
| C[C@H](CCC(=O)O)[C@H]1CC[C@H]2[C@@H]3[C@H](O)C[C@@H]4C[C@H](O)CC[C@]4(C)[C@H]3CC[C@]12C [Chenodeoxycholic Acid] | -0.85 ± 0.17 | -1.08 ± 0.25 |
| CCN(CC)CCOC(=O)C(c1ccccc1)c1ccccc1 [Adiphenine HCl] | 0.89 ± 0.26 | -1.01 ± 0.29 |
| Nc1nnc(-c2cccc(Cl)c2Cl)c(N)n1 [Lamotrigine] | -0.25 ± 0.17 | 0.46 ± 0.16 |
| O=C(O)c1cn(-c2ccc(F)cc2)c2cc(N3CCNCC3)c(F)cc2c1=O [Sarafloxacin HCl] | 0.6 ± 0.29 | 0.45 ± 0.27 |
| CCn1c(=O)c2c(nc(/C=C/c3ccc(OC)c(OC)c3)n2C)n(CC)c1=O [Istradefylline] | -0.97 ± 0.19 | 0.06 ± 0.13 |
| C[C@]12CCC3=C4CCC(=O)C=C4CC[C@H]3[C@@H]1CC[C@@]2(O)CC#N [Dienogest] | 0.18 ± 0.23 | -0.86 ± 0.21 |
| CC(=O)Nc1ccc(C(=O)Nc2ccccc2N)cc1 [CI994 (Tacedinaline)] | -0.23 ± 0.18 | 0.6 ± 0.14 |
| CCCCC1=NC2(CCCC2)C(=O)N1Cc1ccc(-c2ccccc2-c2nnn[nH]2)cc1 [Irbesartan] | -1.61 ± 0.23 | 0.59 ± 0.17 |
| CC(C)(OCc1nn(Cc2ccccc2)c2ccccc12)C(=O)O [Bindarit] | 0.03 ± 0.17 | 0.11 ± 0.17 |
| Cc1cnc(-c2cnc(NCCNc3ccc(C#N)cn3)nc2-c2ccc(Cl)cc2Cl)[nH]1 | -0.88 ± 0.22 | 0.11 ± 0.17 |
| O=S(=O)(c1cccc2cnccc12)N1CCCNCC1 [Fasudil (HA-1077) HCl] | -0.26 ± 0.15 | -0.73 ± 0.17 |
| CC(C)C[C@@H](C=O)NC(=O)[C@H](CC(C)C)NC(=O)[C@H](CC(C)C)NC(=O)OCc1ccccc1 | -0.46 ± 0.19 | 0.25 ± 0.097 |
| CCOC(=O)[C@H](CCc1ccccc1)N[C@H]1CS[C@H](c2cccs2)CN(CC(=O)O)C1=O [Temocapril HCl] | 0.53 ± 0.21 | 0.1 ± 0.21 |
| C[C@@H](O)[C@H]1C(=O)N2C(C(=O)OCOC(=O)C(C)(C)C)=C(SC3CN(C4=NCCS4)C3)[C@H](C)[C@H]12 [Tebipenem Pivoxil] | 0.37 ± 0.32 | 0.03 ± 0.35 |
| COc1cc2nc(N(C)CCCNC(=O)C3CCCO3)nc(N)c2cc1OC (stereo not given) [Alfuzosin HCl] | -0.33 ± 0.21 | -0.34 ± 0.2 |
| CC(NCCc1ccc(O)cc1)C(O)c1ccc(O)cc1 (stereo not given) [Ritodrine HCl] | -0.33 ± 0.19 | -0.3 ± 0.18 |
| CC(=O)N[C@H]1[C@H]([C@H](O)[C@H](O)CO)OC(C(=O)O)=C[C@@H]1NC(=N)N [Zanamivir] | 0.35 ± 0.19 | -0.01 ± 0.13 |

Shown with bars between the fields: entries from further up.
SMILES | rod outer segment growth distance Dg [1] [um] | rod outer segment shedding distance Ds [2] [um]
CC(C)(C)c1nc(-c2cccc(NS(=O)(=O)c3c(F)cccc3F)c2F)c(-c2ccnc(N)n2)s1 | -1.03 ± 0.17 | -0.1 ± 0.13
COc1ccccc1OCC(O)CN1CCN(CC(=O)Nc2c(C)cccc2C)CC1 (stereo not given) [Ranolazine] | -0.67 ± 0.24 | -0.03 ± 0.15
C[C@@H]1COCCN1c1cc(C2(S(C)(=O)=O)CC2)nc(-c2cccc3[nH]ccc23)n1 | -1.25 ± 0.23 | -0.55 ± 0.18
Nc1nnc(-c2cccc(Cl)c2Cl)c(N)n1 [Lamotrigine] | -0.25 ± 0.17 | 0.46 ± 0.16
C[C@]12CCC3=C4CCC(=O)C=C4CC[C@H]3[C@@H]1CC[C@@]2(O)CC#N [Dienogest] | 0.18 ± 0.23 | -0.86 ± 0.21
Cc1cnc(-c2cnc(NCCNc3ccc(C#N)cn3)nc2-c2ccc(Cl)cc2Cl)[nH]1 | -0.88 ± 0.22 | 0.11 ± 0.17
CC(NCCc1ccc(O)cc1)C(O)c1ccc(O)cc1 (stereo not given) [Ritodrine HCl] | -0.33 ± 0.19 | -0.3 ± 0.18
CC(=O)N[C@H]1[C@H]([C@H](O)[C@H](O)CO)OC(C(=O)O)=C[C@@H]1NC(=N)N [Zanamivir] | 0.35 ± 0.19 | -0.01 ± 0.13
